# Results taken from US20250304623A1, “PEPTIDES FOR INTRACELLULAR DELIVERY” (UNIVERSIDADE DE SANTIAGO DE COMPOSTELA, priority 2022, published 2025).
# Some entries share one result that the patent states for a list of compounds.
# Tested on: HCT116 cells
# Assay: RLuc pDNA delivery, robotic library screening, HCT116
# Type: cell-based
# Settings: palmitoleyl aldehyde
row,Substance,"pDNA delivery, times better than Lipofectamine 2000"
1,"Ac-RHLK*RHK*RRLK*RH-NH2 (RHLKRHKRRLKRH; N-acetyl, C-amide, modified lysines; MOD_RES 1 …ON; Cationic peptide 13.3(3His); MOD_RES 4 Native lysine or modified lysine, wherein the modified lysine is a lysine forming an amide bond with a linker through the e-amino group.; MOD_RES 7 Native lysine or modified lysine, wherein the modified lysine is a lysine forming an amide bond with a linker through the e-amino group.; MOD_RES 11 Native lysine or modified lysine, wherein) [13(3His)]",≤ 9 times
2,"Ac-RHLK*RLK*RRLK*RL-NH2 (RHLKRLKRRLKRL; N-acetyl, C-amide, modified lysines; MOD_RES 1 …ON; Cationic peptide 13.3(R-H); MOD_RES 4 Native lysine or modified lysine, wherein the modified lysine is a lysine forming an amide bond with a linker through the e-amino group.; MOD_RES 7 Native lysine or modified lysine, wherein the modified lysine is a lysine forming an amide bond with a linker through the e-amino group.; MOD_RES 11 Native lysine or modified lysine, wherein) [13(Arg-His)]",≤ 9 times
3,"Ac-RRHK*RLK*RRLK*RL-NH2 (RRHKRLKRRLKRL; N-acetyl, C-amide, modified lysines; MOD_RES 1 …ON; Cationic peptide 13.3(Leu-His); MOD_RES 4 Native lysine or modified lysine, wherein the modified lysine is a lysine forming an amide bond with a linker through the e-amino group.; MOD_RES 7 Native lysine or modified lysine, wherein the modified lysine is a lysine forming an amide bond with a linker through the e-amino group.; MOD_RES 11 Native lysine or modified lysine, wher) [13(Leu-His)]",≤ 9 times
